Assay results from US20190263918A1.
These are yes or no findings as the source states them, for the method shown. Some results given as binding are weak or reduced against the parent protein; the word gives no strength.

Sequences of proteins named here, by UniProt entry; tags and fusion partners are left off. Residues count along the entry.
UniProt P27512, residues 24-193: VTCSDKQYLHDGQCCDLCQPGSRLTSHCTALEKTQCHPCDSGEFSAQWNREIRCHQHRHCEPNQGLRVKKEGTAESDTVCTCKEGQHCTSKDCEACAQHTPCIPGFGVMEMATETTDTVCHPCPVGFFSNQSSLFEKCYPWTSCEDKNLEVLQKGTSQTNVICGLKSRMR

Assays:
[1] = target: recombinant murine CD40 protein (murine) (UniProt P27512); experiment: ELISA: plate coated with recombinant murine CD40, antibody in gradient dilutions, HRP-labelled goat anti-human IgG-Fc secondary antibody, A650
[2] = target: recombinant murine CD40 protein (murine) (UniProt P27512); experiment: ELISA, plate coated with recombinant murine CD40
[3] = target: recombinant murine CD40 protein (murine) (UniProt P27512); experiment: ELISA (FIG. 3A), coated mouse CD40

Measured: binding

B1: Anti-mCD40-hIgG2-NA (antibody)
heavy: EVQLVESDGGLVQPGRSLKLPCAASGFTFSDYYMAWVRQAPTKGLEWVASISYDGSSTYYRDSVKGRFTISRDNAKSTLYLQMDSLRSEDTATYYCGRHSSYFDYWGQGVMVTVSSASTKGPSVFPLAPCSRSTSESTAALGCLVKDYFPEPVTVSWNSGALTSGVHTFPAVLQSSGLYSLSSVVTVPSSNFGTQTYTCNVDHKPSNTKVDKTVERKCCVECPPCPAPPVAGPSVFLFPPKPKDTLMISRTPEVTCVVVDVSHEDPEVQFNWYVDGVEVHNAKTKPREEQFASTFRVVSVLTVVHQDWLNGKEYKCKVSNKGLPAPIEKTISKTKGQPREPQVYTLPPSREEMTKNQVSLTCLVKGFYPSDIAVEWESNGQPENNYKTTPPMLDSDGSFFLYSKLTVDKSRWQQGNVFSCSVMHEALHNHYTQKSLSLSPGK
light: DTVLTQSPALAVSPGERVTISCRASDSVSTLMHWYQQKPGQQPKLLIYLASHLESGVPARFSGSGSGTDFTLTIDPVEADDTATYYCQQSWNDPWTFGGGTKLELKRTVAAPSVFIFPPSDEQLKSGTASVVCLLNNFYPREAKVQWKVDNALQSGNSQESVTEQDSKDSTYSLSSTLTLSKADYEKHKVYACEVTHQGLSSPVTKSFNRGEC
binds: [1] | [2] | [3]
